Some of the results follow.
target: OsWRKY34 (Oryza sativa, UniProt Q0JBA9 1-250); test: protein-binding microarray (RPBM); PBS, 2% BSA, 51.3 ng/ul salmon testes DNA, 50 uM zinc acetate, 200 nM TF, 25 C, 1 h; high values mean tight binding; conditions: protein: recombinant; tags: N-terminal polyhistidine and DsRed monomer fusion (pET32a); label: CyDye5-dUTP incorporated in the synthesized complementary strand; 3' TTTTT single-stranded linker to array surface; dsDNA, one strand shown
Method in brief: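 Transcription factors, each fused N-terminally to a polyhistidine tag and DsRed, were expressed in E. coli BL21-CodonPlus and purified on Ni–NTA. A custom Agilent array was made double-stranded by primer extension with Cy5-dUTP and blocked with 2% BSA. It was incubated with 200 nM protein in PBS, 2% BSA, salmon testes DNA and 50 µM zinc acetate at 25 °C for 1 h, then washed. The binding signal is per-feature fluorescence intensity (arbitrary units) read on an Axon 4000B scanner.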

Protein sequences, listed by entry. Tags and fused reporters are not part of them.
UniProt Q0JBA9, entry or part of it: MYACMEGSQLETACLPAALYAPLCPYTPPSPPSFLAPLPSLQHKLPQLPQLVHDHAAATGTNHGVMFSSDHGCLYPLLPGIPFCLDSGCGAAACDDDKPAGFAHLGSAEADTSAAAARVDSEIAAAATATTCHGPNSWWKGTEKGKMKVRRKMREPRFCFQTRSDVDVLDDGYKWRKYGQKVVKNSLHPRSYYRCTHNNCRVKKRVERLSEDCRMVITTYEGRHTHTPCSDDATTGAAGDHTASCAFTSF

| Sequence | binding signal |
| --- | --- |
| TTCAATGACAATGTTGACTTTTTGACAAACGTTTAACCTTCGGAGTCACCTAGTGCAG | 10200 fluorescence intensity (a.u.) |
| CATCGTATCATATTTGGGTATTTTCTCCTTGATTAGCCAGCGGAGTCACCTAGTGCAG | 8270 fluorescence intensity (a.u.) |
| CAGAGCCCGCGACATGCCTTGCCGCACCGCGCCGAGGCGTCGGAGTCACCTAGTGCAG | 8410 fluorescence intensity (a.u.) |
| CTCCATCTCCTCCACCAAATCCCCTACTTTTCCCCAATTTCGGAGTCACCTAGTGCAG | 8640 fluorescence intensity (a.u.) |
| GACGCGACGCGCCCAACCGCGCCCTCGCCTCGCCGCCATGCGGAGTCACCTAGTGCAG | 9160 fluorescence intensity (a.u.) |
| ACCGGTTGGGTCAACCTTTCTATGTACGCTCTTATACACGCGGAGTCACCTAGTGCAG | 10000 fluorescence intensity (a.u.) |
| GTGGAGGCGCGGTGGGGTGGGGAAGGAGTGTGTTTCGTGTCGGAGTCACCTAGTGCAG | 15500 fluorescence intensity (a.u.) |
| TTTTTTAGTGTGTTGGCCCAGTCATTTTTGGCCTTTTTTGCGGAGTCACCTAGTGCAG | 8560 fluorescence intensity (a.u.) |
| GACATCGCCGCCGGCATCCACCAGCCGCCGCCGCCCGACCCGGAGTCACCTAGTGCAG | 8640 fluorescence intensity (a.u.) |
| CCAGTTGCTCTTCTCTCTTCTCTTTTATTTCATCGAAACACGGAGTCACCTAGTGCAG | 10400 fluorescence intensity (a.u.) |
| TCTCGCCCGCCTATCCGCCATCCCGAAACGCCGCCGCCTCCGGAGTCACCTAGTGCAG | 11000 fluorescence intensity (a.u.) |
| CCATATCTTGCTGTTCTGGTCAGGTTGAGTGTAATACACACGGAGTCACCTAGTGCAG | 10500 fluorescence intensity (a.u.) |
| GTGTCAGTGCGTTTATTTAGATCTATAATCAGAATCTTTCCGGAGTCACCTAGTGCAG | 9470 fluorescence intensity (a.u.) |
| TCTCTCTTTCTCGGCGAGGATTGGCTGTGTGATTAGAGGTCGGAGTCACCTAGTGCAG | 8590 fluorescence intensity (a.u.) |
| TTTCTGACGACGAACGCAGCTGAACACAGTTTTTTTTCTTCGGAGTCACCTAGTGCAG | 8470 fluorescence intensity (a.u.) |
| GCCTTGTACTCCTTCATTATGGATGCTCCTATTTTTTTTCCGGAGTCACCTAGTGCAG | 8110 fluorescence intensity (a.u.) |
| CTTAATTACGTGTTTAGTGCTTTACTTTGAGTTGGTTCAGCGGAGTCACCTAGTGCAG | 12100 fluorescence intensity (a.u.) |
| ATCCGATGTGGCACGCTAAAACTTTACACCCCTGAATCTACGGAGTCACCTAGTGCAG | 8540 fluorescence intensity (a.u.) |
| CTGCCAACTTTATCTCACTCCTTACCATTACAATAACTGACGGAGTCACCTAGTGCAG | 10800 fluorescence intensity (a.u.) |
| CCAGCTAAGTACTCCACAAACTTGCAAACTAAAACACGCACGGAGTCACCTAGTGCAG | 8710 fluorescence intensity (a.u.) |
| ACGACCCCTCCAACACATTTCCCTCGCGTCTCGTTGCGATCGGAGTCACCTAGTGCAG | 8480 fluorescence intensity (a.u.) |

| Sequence | binding signal |
| --- | --- |
| CTTCTCTGTTTATAGCTTGTTTCCTTTCAAAGTCCAGTTTCGGAGTCACCTAGTGCAG | 9220 fluorescence intensity (a.u.) |
| TTATCTAACTGCTCCTTTAATTTCCTCTTCTCTCTCTCTCCGGAGTCACCTAGTGCAG | 8420 fluorescence intensity (a.u.) |
| GGGGAGTAATTTAGTCTTGTGTCGTTTTTGGCTCATTCATCGGAGTCACCTAGTGCAG | 9340 fluorescence intensity (a.u.) |
| TTCCCCTTCTCTGTGTCCTCGCTCGCTAATCGCTATAAACCGGAGTCACCTAGTGCAG | 8110 fluorescence intensity (a.u.) |
| CCCGGCCGGGTCGATTTTGGCTTCTGCTCTTCTTCTGGATCGGAGTCACCTAGTGCAG | 10200 fluorescence intensity (a.u.) |
| ATCTTTCACAAAGGCCAACTCTATCATTGGCTGGCGCCGCCGGAGTCACCTAGTGCAG | 8970 fluorescence intensity (a.u.) |
| CGCCACCGTCGGATTTGTTTTGTTTTGAAATTTTATTTTTCGGAGTCACCTAGTGCAG | 8940 fluorescence intensity (a.u.) |
| ACTTAGAGTATGTGTTTACAATTTGGATCTTGTATCATCTCGGAGTCACCTAGTGCAG | 8200 fluorescence intensity (a.u.) |
| GTGCTCTTTAATTATCACTTTGTGCGCACTTTTCTTTGATCGGAGTCACCTAGTGCAG | 8710 fluorescence intensity (a.u.) |
| TGGTGGTGTGCTTGGTCTACTTGGAGGTTTAGGCCACTCTCGGAGTCACCTAGTGCAG | 8970 fluorescence intensity (a.u.) |
| CAAACTTCTCACACACACGCTGACGCCTGAGTGCTGACCGCGGAGTCACCTAGTGCAG | 8350 fluorescence intensity (a.u.) |
| CCCATAAGGATGGGCCGTATGTCTTTCACAACTTGGCCTGCGGAGTCACCTAGTGCAG | 8700 fluorescence intensity (a.u.) |
| ATCTGTGTTCTTCTCTCAACTTTTCCAAACCTCTCGTCTCCGGAGTCACCTAGTGCAG | 10800 fluorescence intensity (a.u.) |
| CCTTCACTCCTCTCTCATCTTTTCACCCTTTTTCCACATTCGGAGTCACCTAGTGCAG | 9330 fluorescence intensity (a.u.) |
| CGTACGTATCTCTTGTTCTCCTCGCGTCAGCGACCAACGGCGGAGTCACCTAGTGCAG | 8490 fluorescence intensity (a.u.) |
| ATAATTATTTGTTTTCAGTCATGTATCTTCATCTTATACACGGAGTCACCTAGTGCAG | 8610 fluorescence intensity (a.u.) |
| ATTAGCTTTCTTTCATTTTCTCCCTCTGCGAGCAGAGGAACGGAGTCACCTAGTGCAG | 8120 fluorescence intensity (a.u.) |
| GCTTGTTGTGGGCTGTGGACTGGGTGTGTGTGTGTGCTTTCGGAGTCACCTAGTGCAG | 9420 fluorescence intensity (a.u.) |
| ATCTCATCCGAAATTTTTGGCTTTTTGCAAATTTTTGTGACGGAGTCACCTAGTGCAG | 8430 fluorescence intensity (a.u.) |
| GTGCTTCTGCTCGGGCTCAAAGTCGTCAGCTTTTTCTGTGCGGAGTCACCTAGTGCAG | 9650 fluorescence intensity (a.u.) |
| CCTCGATGTACCTCATTCCTACATTATGGCATTCATGTTCCGGAGTCACCTAGTGCAG | 12000 fluorescence intensity (a.u.) |

Single values from above:
Entry for GACATCGCCGCCGGCATCCACCAGCCGCCGCCGCCCGACCCGGAGTCACCTAGTGCAG under binding signal: 8640 fluorescence intensity (a.u.)
Entry for TGGTGGTGTGCTTGGTCTACTTGGAGGTTTAGGCCACTCTCGGAGTCACCTAGTGCAG under binding signal: 8970 fluorescence intensity (a.u.)

Shown with bars between the fields: entries from further up
Sequence | binding signal
TTTCTGACGACGAACGCAGCTGAACACAGTTTTTTTTCTTCGGAGTCACCTAGTGCAG | 8470 fluorescence intensity (a.u.)
TTCCCCTTCTCTGTGTCCTCGCTCGCTAATCGCTATAAACCGGAGTCACCTAGTGCAG | 8110 fluorescence intensity (a.u.)
